Source: patent publication US20230151065A1, “MULTI-DISULFIDE-BOND LONG-CHAIN PEPTIDE WITH NEURO[…], PHARMACEUTICAL COMPOSITION AND APPLICATION” (priority 2018, published 2023)
For at least one compound, name, drawing or mass did not settle the structure.

Tested on: PI3K/AKT signaling pathway in cortical neurons after OGD damage
Test: OGD damage of cortical neurons with PI3K inhibitor LY-294002, Western blot of p-AKT and Cleaved caspase-3
Assay type: cell-based, SD rat
Conditions: vs OGD group, ABPPk2 at high dose, LY-294002 30 min

## O=c1cc(N2CCOCC2)oc2c(-c3ccccc3)cccc12 [LY-294002, reference compound]
  expression of Cleaved caspase-3: significantly up-regulated
  expression of p-AKT: significantly down-regulated
